Results on eight molecules are retold here after PMC5058708.

Sequences of proteins named here, by UniProt entry; tags and fusion partners are left off. Residues count along the entry.
UniProt P61589: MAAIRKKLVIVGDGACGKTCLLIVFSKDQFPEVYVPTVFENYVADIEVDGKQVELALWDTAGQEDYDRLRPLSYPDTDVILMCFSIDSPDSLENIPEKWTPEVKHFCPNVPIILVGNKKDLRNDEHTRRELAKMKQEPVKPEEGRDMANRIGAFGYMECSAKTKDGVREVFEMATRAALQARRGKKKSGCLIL
UniProt Q66HG5, residues 29-663: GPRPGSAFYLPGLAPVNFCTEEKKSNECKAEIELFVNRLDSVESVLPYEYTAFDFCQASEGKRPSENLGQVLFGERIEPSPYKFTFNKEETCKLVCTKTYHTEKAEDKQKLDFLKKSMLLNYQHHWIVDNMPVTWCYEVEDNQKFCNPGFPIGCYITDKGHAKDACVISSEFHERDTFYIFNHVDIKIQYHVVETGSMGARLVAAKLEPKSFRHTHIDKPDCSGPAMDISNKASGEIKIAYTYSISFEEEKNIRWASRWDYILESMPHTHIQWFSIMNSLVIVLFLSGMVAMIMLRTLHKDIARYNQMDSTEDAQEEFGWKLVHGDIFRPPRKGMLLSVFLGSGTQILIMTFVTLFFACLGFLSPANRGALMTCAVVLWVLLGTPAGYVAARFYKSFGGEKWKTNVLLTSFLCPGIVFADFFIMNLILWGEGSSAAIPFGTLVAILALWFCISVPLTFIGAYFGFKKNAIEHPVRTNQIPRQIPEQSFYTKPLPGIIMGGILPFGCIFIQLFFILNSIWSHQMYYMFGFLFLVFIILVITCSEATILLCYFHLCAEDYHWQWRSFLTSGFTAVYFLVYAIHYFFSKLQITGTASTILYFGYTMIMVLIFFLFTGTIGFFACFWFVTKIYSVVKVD
UniProt O35763: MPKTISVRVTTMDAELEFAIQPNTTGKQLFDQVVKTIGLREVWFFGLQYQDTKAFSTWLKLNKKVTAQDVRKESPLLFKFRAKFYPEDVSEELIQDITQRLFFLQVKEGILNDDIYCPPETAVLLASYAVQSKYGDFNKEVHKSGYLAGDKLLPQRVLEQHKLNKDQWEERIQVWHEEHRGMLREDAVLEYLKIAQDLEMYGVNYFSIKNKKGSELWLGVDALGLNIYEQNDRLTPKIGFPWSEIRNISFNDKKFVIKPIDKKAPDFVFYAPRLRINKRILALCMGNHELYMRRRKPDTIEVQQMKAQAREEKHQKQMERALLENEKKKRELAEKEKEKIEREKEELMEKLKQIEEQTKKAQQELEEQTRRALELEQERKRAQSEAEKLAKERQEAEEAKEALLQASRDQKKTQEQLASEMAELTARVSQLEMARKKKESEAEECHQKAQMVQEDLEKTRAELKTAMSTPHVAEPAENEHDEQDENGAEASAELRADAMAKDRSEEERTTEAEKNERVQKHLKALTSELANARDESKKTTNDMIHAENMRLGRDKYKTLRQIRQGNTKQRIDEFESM
UniProt A0ACM8QGX5: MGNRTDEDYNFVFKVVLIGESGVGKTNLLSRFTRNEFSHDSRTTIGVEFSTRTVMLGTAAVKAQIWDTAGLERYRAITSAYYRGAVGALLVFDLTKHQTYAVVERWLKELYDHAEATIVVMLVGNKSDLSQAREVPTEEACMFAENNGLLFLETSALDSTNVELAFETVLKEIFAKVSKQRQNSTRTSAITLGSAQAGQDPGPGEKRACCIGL

What all share (assay): affinity purification with mass spectrometry; mild lysis (Lubrol); ASML^wt lysates precipitated with anti-EpC and anti-cld7, ASML-EpC^kd, -EpC^mAG and -cld7^mPalm lysates with anti-cld7; SDS-PAGE, nanoLC-ESI-MS/MS on an LTQ orbitrap
In test [1] the target is T1, claudin7 (rat (endogenous in ASML)) (UniProt Q9Z1L1).
T1 sequence (chain, palmitoylated (palmitoylation is prevented by mutating AA184 and AA186)): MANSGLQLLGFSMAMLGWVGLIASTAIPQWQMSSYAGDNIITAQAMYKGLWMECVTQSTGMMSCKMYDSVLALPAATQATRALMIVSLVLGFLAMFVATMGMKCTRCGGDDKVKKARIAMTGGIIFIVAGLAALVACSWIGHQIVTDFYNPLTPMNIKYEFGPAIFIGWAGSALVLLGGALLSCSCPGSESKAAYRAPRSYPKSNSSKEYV

Test [2] concerns the target cld7 with a mutation in the palmitoylation site (UniProt Q9Z1L1).
Test [3] addresses T1, claudin7 (rat (endogenous in ASML)). This is another data set of the same source.
Test [4] has as its target cld7 with a mutation in the palmitoylation site (UniProt Q9Z1L1). This is another data set of the same source.

Read-outs that look alike come from different tables or passages of the source. Results are given in words; binding and its absence hold for the method and conditions named. In cells and extracts the contact can be indirect. Here binding means that the protein was enriched with, or labelled near, the bait; the list need not be complete.

In the case of myoferlin (rat (endogenous in ASML)), in test [1], the binding result is reported as “binds”.

Regarding RhoA (from UniProt P61589 1-193), the binding entry in test [1] is “binds”.

Take TM9SF2 (from UniProt Q66HG5 29-663): the binding entry in test [2] is on record as “binds”.

For the molecule moesin (from UniProt O35763 1-577), the binding entry in test [1] is listed as “binds”.

As for “aldose reductase (from UniProt P07943 1-316) (enzyme)”, in test [2], the binding result was “binds”.

As for rab25 (from UniProt A0ACM8QGX5 1-213), the binding entry in test [1] was “binds”.

B1: Sec31a (protein, UniProt Q9Z2Q1 1-1249)
chain: MKLKEIDRTAMQAWSPAQNHPIYLATGTSAQQLDATFSTNASLEIFELDLSDPSLDMKSCATFSSSHRYHKLIWGPHKMDSKGDVSGVLIAGGENGNIILYDPSKIIAGDKEVVIAQKDKHTGPVRALDVNIFQTNLVASGANESEIYIWDLNNFATPMTPGAKTQPPEDISCIAWNRQVQHILASASPSGRATVWDLRKNEPIIKVSDHSNRMHCSGLAWHPDVATQMVLASEDDRLPVVQMWDLRFASSPLRVLENHARGILAIAWSMADPELLLSCGKDAKILCSNPNTGEVLYELPTNTQWCFDIQWCPRNPAVLSAASFDGRIRVYSIMGGSIDGLRQKQVDKLSSSFGNLDPFGTGQPLPPLQIPQQTSQHSIVLPLKKPPKWIRRPVGASFSFGGKLVTFENVTGQPQQGAEQPRRQPVFISQVVTEKDFLSRSEQLQHVVQSQGFISYCQKKIDASQTDFEKNVWSFLKVNFEEDSRGKYLELLGYRREDLGEKIALALNRVDGSDVALKDSDRVAQSDGEESPAEEGQLLGERIKEEKQECDFLPSAGGGTFNISVSGDIDGLITRALLTGNFESAVDLCLHDNRMADAIILAIAGGQELLAQTQKKYFAKSQSKITRLITAVVMKNWKEIVESCDLKNWREALAAVLTYAKPDEFSALCDLLGARLESEGDSLLRTQACLCYICAGNVERLVACWTKAQDGSNPLSLQDLIEKVVILRKAVQLTQALDTNTVGALLAEKMSQYANLLAAQGSIAAALAFLPDNTNQPDIVQLRDRLCRAQGRSVPGQESSRSSYEGQPLPKGGPGPLAGHPQVSRVQSQQYYPQVRIAPTVTTWSDRTPTALPSHPPAACPSDTQGGNPPPPGFIMHGNVVPNSPAPLPTSPGHMHSQPPPYPQPQPYQPAQQYSLGTGGSAVYRPQQPVAPPASKRYPNAPYVSPVASYSGQPHMYTAQPASSPTSSSAPLPPPPSSGASFQHGGPGAPPSSSAYALPPGTTGTPPAASELPASQRTGPQNGWNDPPALNRVPKKKKLPENFMPPVPITSPIMNPGGDPQPQGLQQQPSASGPRSSHASFPQPHLAGGQPFHGIQQPLAQTGMPPSFSKPNTEGAPGAPIGNTIQHVQALPTEKITKKPIPDEHLILKTTFEDLIQRCLSSATDPQTKRKLDDASKRLECLYDKLRDQTLSPTIISGLHSIARSIETRNYSEGLTVHTHIVSTSNFSETSAFMPVLKVVLSQASKLGV
As to B1, in test [3], the binding result is listed as “binds”.

B2: lactadherin 2 (protein, UniProt P70490 23-427)
chain: ASGDFCDSSLCLNGGTCLMGQDNDIYCLCPEGFTGLVCNETEKGPCSPNPCFHDAKCLVTEDTQRGDIFTEYICQCPVGYSGIHCELGCSTKLGLEGGAIADSQISASSVYMGFMGLQRWGPELARLYRTGIVNAWTASSYDSKPWIQVDFLRKMRVSGVMTQGASRAGRAEYLKTFKVAYSLDGRRFEFIQDESGTGDKEFMGNQDNNSLKINMFNPTLEAQYIRLYPVSCHRGCTLRFELLGCELHGCSEPLGLKNNTIPDSQITASSSYKTWNLRAFGWYPHLGRLDNQGKINAWTAQSNSAKEWLQVDLGTQKKVTGIITQGARDFGHIQYVASYKVAHSDDGVQWTVYEEQGTSKVFQGNLDNNSHKKNIFEKPFMARYVRVLPLSWHNRITLRLELLGC
Regarding B2, the binding result in test [4] is listed as “binds”.
